For orientation: Kd means the free concentration of one partner at which half of the binding sites on the other are occupied at equilibrium, for simple one-to-one binding.

The results in this text go back to article PMC9881148.

For at least one entry, the source does not settle the construct or the ends of the probe. A weaker result is weaker than the reference pair of the same experiment.

In this data set the target is p53WT (Homo sapiens) (UniProt P04637). In words: FCS. As to conditions: 3 mM DTT, 0.05% Tween20, 1 h room temperature, 10 nM nucleic acid, recombinant protein, protein details: His-tag removed by thrombin, label: Cy5 at 5' end of forward strand.

“CGAGGAACATGTCCCAACATGTTGCTCGAG (double strand) [REp21]”: the Kd (50 mM Tris pH 7.4, 150 mM NaCl) stood at 32 nM.
“GTCGCTGACCCGAGACTAGGCGTTCAAATA (double strand) [REp21scr]”: the binding result (onset of binding ~1 uM, ~100x higher than REp21, 50 mM Tris pH 7.4, 150 mM NaCl) is listed as “binds more weakly”.
